Data from the supplement of paper PMC4604168 (melanoma cell lines).
The list shows a part of the results. Many values rest on one well or one pass, so single values are uncertain.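 The apoptosis fraction was the count of cleaved-PARP antibody-stained nuclei relative to all DNA-stained nuclei, imaged in 1,536-well plates. Screening doses were set so most cells survived, and baseline and induced cleaved-PARP levels vary greatly across cell lines.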

System: IPC-298
Assay: cleaved PARP positive nuclei fraction relative to DMSO control; melanoma cells; higher = more apoptosis
Conditions: library dose: low library concentration; 72 h

SMILES	cleaved PARP positive nuclei fraction
NCC(=O)Nc1ccc(-n2nc(C(F)(F)F)cc2-c2ccc3c(ccc4ccccc43)c2)cc1 + C/C(O)=C(\C#N)C(=O)Nc1cc(Br)ccc1Br [LFM-A13] (first compound 1 µM, partner dose 2 µM)	82%
COc1cc(Nc2ncc(F)c(Nc3ccc4c(n3)NC(=O)C(C)(C)O4)n2)cc(OC)c1OC [Tamatinib] + O=C(Oc1ccc([N+](=O)[O-])cc1)N1CCC(C(O)(c2ccc3c(c2)OCO3)c2ccc3c(c2)OCO3)CC1 [JZL184] (first compound 0.4 µM, partner dose 1 µM)	93.7%
O=C(O)C(=O)Nc1sc2c(c1C(=O)O)CCNC2 + O=C(Oc1ccc([N+](=O)[O-])cc1)N1CCC(C(O)(c2ccc3c(c2)OCO3)c2ccc3c(c2)OCO3)CC1 [JZL184] (first compound 1.66667 µM, partner dose 1 µM)	41.7%
Cc1cc(SCc2sc(-c3ccc(C(F)(F)F)c(F)c3)nc2C)ccc1OCC(=O)O + O=C(Oc1ccc([N+](=O)[O-])cc1)N1CCC(C(O)(c2ccc3c(c2)OCO3)c2ccc3c(c2)OCO3)CC1 [JZL184] (first compound 2 µM, partner dose 1 µM)	76.2%
